# Assay results as given in PubChem BioAssay AID504467 (National Center for Advancing Translational Sciences (NCATS), 2011).
# Hit rate of the full screen: of about 330,000 compounds, about 7,700 (2.3%) were called active. Inconclusive results, whose numbers are uncertain, are shown with a selection of clear calls. Calls follow the shape of the dose curve; as a rule, active = well fitted inhibition curve with a large enough effect; inconclusive = small, poorly fitted or top-dose-only effect, or effect the other way; inactive = flat fitted curve, though single readings scatter. A potency beside an inconclusive call is a rough fit, not a confirmed value.
# Test: qHTS screen for small molecules that inhibit ELG1-dependent DNA repair in human embryonic kidney (HEK293T) cells expressing luciferase-tagged ELG1; also: nearly all actives have a fitted effect of over 55% in size
# Settings: HEK293T ELG1-luciferase reporter, luminescence, 16 h, DNA damage induced by 5-fluorouridine; activity change, negative = inhibition: at 46.1 µM (top of the series)
# Summary of the method: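 Step one: seed 2,000 cells per well. Step two: pin-transfer compound or DMSO alongside 5-fluorouridine. Step three: incubate 16 hr, 37 °C, 5% CO2. Step four: add ONE-Glo, wait 30 min, read luminescence.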
# % is scaled to controls: 0 for no effect and ±100 for the full control effect; potency is read from the fitted curve at half-maximal effect.
SMILES,Potency,"activity change, negative = inhibition"
O=C(NCc1cccnc1)c1cccc(-c2cc3ccccc3oc2=O)c1,"inconclusive: 29.1 µM [inhibitor, single point]",
Cc1ccc(CN(C)C(=O)c2cc(S(=O)(=O)N3CCOCC3)ccc2F)o1,,inactive: 15.1%
c1cncc(CSc2ccc(-c3ccc4c(c3)OCO4)nn2)c1,"inconclusive: 3.26 µM [activator, partial curve, poor fit]",
O=C(/C=C/c1ccc([N+](=O)[O-])cc1)NCCc1ccc(F)cc1,"inconclusive: 23.1 µM [inhibitor, single point]",
Cn1c(=O)c2c(O)c([N+](=O)[O-])c(=O)n(C)c2n(C)c1=O,,inactive: 0.855%
CCN1CCN(C(=O)C2CCN(S(=O)(=O)c3ccc(SC)cc3)CC2)CC1,,inactive: 12.7%
COc1ccc(CNC(=O)C[C@H]2C[C@H](C(=O)N3CCCCC3)[C@@]3(C)c4[nH]c5ccc(Cl)cc5c4CCN3C2=O)cc1OC,"inconclusive: 20.6 µM [inhibitor, partial curve]",
COc1ccc2c(c1)[nH]c1c(N3CCN(Cc4ccc5c(c4)OCO5)CC3)ncnc12,active: 20.6 µM,
Fc1ccccc1-c1nc(-c2ccc(-c3nn[nH]n3)cc2)no1,"inconclusive: 16.4 µM [activator, partial curve]",
Oc1cccnc1CCc1ccccc1,"inconclusive: 20.6 µM [activator, single point]",
COc1ccc(C(C)(C)C)cc1NC(=O)COC(=O)c1ncc(Cl)c(Cl)c1Cl,"inconclusive: 29.1 µM [activator, single point]",
O=C(/C=C/c1cccc(F)c1)N1CCc2ccccc21,"inconclusive: 1.03 µM [activator, full curve]",
COC(=O)Nc1c(-c2ccccc2)nc2ccc(Cl)cn12,,inactive: 7.12%
CN1CCN(CCOc2ccc(Cc3ccccc3)cc2)CC1,,inactive: 8.21%
Cc1ccnc(NC(=O)c2ccc(Br)s2)c1,"inconclusive: 9.2 µM [activator, partial curve]",
COc1ccc(N2CCN(Cc3cc(=O)oc4ccc5ccccc5c34)CC2)cc1,"inconclusive: 9.2 µM [inhibitor, partial curve, poor fit]",
Cc1cccc(N2CCN(C3=NC(=O)C(=C4CCCCC4)S3)CC2)c1,"inconclusive: 20.6 µM [inhibitor, single point]",
Cc1csc(C(C#N)C(=O)c2cc3ccccc3o2)n1 (configuration not stated),"inconclusive: 10.3 µM [activator, partial curve]",
O=C(c1ccccc1F)N1CCN(c2ccccc2F)CC1,,inactive: -8.57%
Cc1cc(C)n(C(C)CNS(=O)(=O)c2ccc(Cl)cc2)n1 (configuration not stated),,inactive: 2.46%
O=C(Nc1cccc(C(=O)O)c1)/C(=C\c1ccco1)NC(=O)c1ccccc1,"inconclusive: 23.1 µM [activator, partial curve, poor fit]",
Cn1c2ccccc2c(=O)c2cc(C#Cc3cccc(N)c3)ccc21,"inconclusive: 18.3 µM [activator, partial curve]",
CCC(C)(C)C(=O)Nc1nnc(CCc2ccccc2)s1,"inconclusive: 18.3 µM [activator, partial curve]",
Cc1onc(-c2ccccc2)c1C(=O)N1CCN(c2ncccn2)CC1,,inactive: -1.89%

SMILES,Potency,"activity change, negative = inhibition"
CC(C)(C)c1ccc(C(=O)N2CCCN(c3ccc([N+](=O)[O-])cn3)CC2)cc1,"inconclusive: 16.4 µM [inhibitor, single point]",
Cc1ccc(N/C(SCc2ccccc2C)=C(/C#N)C(=O)NCc2ccco2)cc1C,,inactive: -10.3%
O=C(NC(NC(=S)Nc1c(Cl)cccc1Cl)C(Cl)(Cl)Cl)c1cccc([N+](=O)[O-])c1 (configuration not stated),"inconclusive: 29.1 µM [inhibitor, single point]",
Cc1onc(-c2ccccc2)c1C(=O)N/N=C/C=C/c1ccccc1,"inconclusive: 32.6 µM [inhibitor, partial curve, poor fit]",
CSCC[C@H](NC(=O)c1cccs1)C(=O)N1CCC2(CC1)NCCc1[nH]cnc12,,inactive: 19.4%
Cc1cc(C(=O)CN2C(=O)C(=O)N(CC(C)C)C2=O)c(C)n1C1CC1,"inconclusive: 18.3 µM [activator, partial curve]",
CC1CCCN(C(=O)CN(C)S(=O)(=O)c2ccc3c(c2)c(=O)n(C)c(=O)n3C)C1 (configuration not stated),,inactive: 16.4%
O=C(NCC1CCCO1)C1CC(=O)N(c2ccc(Cl)cc2)C1 (configuration not stated),,inactive: 4.79%
COc1ccc(S(=O)(=O)N2CCOC2CNC(=O)C(=O)NCCc2c[nH]c3ccccc23)cc1C (configuration not stated),active: 25.9 µM,
C=CCNC(=O)c1ccc(CN(c2ccc(OCC)cc2)S(=O)(=O)c2ccc(C)cc2)cc1,"inconclusive: 29.1 µM [inhibitor, single point]",
CCCNc1ncccc1C(N)=O,"inconclusive: 22.4 µM [inhibitor, partial curve, poor fit]",
O=C(CCCc1c[nH]c2ccccc12)NCCc1c[nH]c2ccccc12,,inactive: -19.7%
CSc1cccc(NC(=O)c2cc(S(=O)(=O)N3CCCC3)cn2C)c1,"inconclusive: 29.1 µM [inhibitor, single point]",
C/C(=N\NC(=O)c1ccc(CN2CCOCC2)cc1)c1ccc(NC(=O)c2ccccc2)cc1,"inconclusive: 18.3 µM [activator, partial curve]",
O=C(NC(=S)Nc1cc([N+](=O)[O-])ccc1O)c1cccnc1,"inconclusive: 29.1 µM [activator, single point]",
CCCCCC(O)(c1ccccc1)C(CN1CCOCC1)c1ccccc1 (configuration not stated),"inconclusive: 18.3 µM [inhibitor, partial curve, poor fit]",
N#C/C(=C(/O)c1ccccc1F)c1nc2cc(C(F)(F)F)ccc2s1,,inactive: -3.17%
Cc1nc(-c2ccccc2)sc1C(=O)CSc1ccccc1,"inconclusive: 32.6 µM [activator, partial curve, poor fit]",
CCOC(=O)C1CCN(C(=O)CCNS(=O)(=O)c2ccc3c(c2)CCN3C(=O)CC)CC1,,inactive: 4.55%
S=C(Nc1ccc2nc(-c3ccccn3)c(-c3ccccn3)nc2c1)N1CCOCC1,,inactive: 6.14%
COc1ccc(C2C(O)C(c3c[nH]c4ccccc34)=NN2C(=O)CCl)cc1 (configuration not stated),active: 8.2 µM,
CNC(=S)N/N=C/c1ccccc1Cl,"inconclusive: 18.4 µM [activator, single point]",
Cc1cc(Cl)nc(NC(=O)Nc2cccc(Cl)c2)n1,"inconclusive: 16.4 µM [activator, partial curve]",
CC1Cc2ccccc2N1C(=S)NC(=O)c1ccco1 (configuration not stated),,inactive: 0%

SMILES,Potency,"activity change, negative = inhibition"
Cc1ccc(Cl)cc1N1CCN(C(=O)c2cccc3c(=O)c(C)c(-c4ccccc4)oc23)CC1,"inconclusive: 16.4 µM [inhibitor, single point]",
COc1ccc(CN(C)CC(=O)Nc2ccccc2C(=O)NC2CC2)cc1F,,inactive: 7.07%
O=C(c1ccccc1)c1nc[nH]c1C(=O)Nc1ccccc1,,inactive: -16.4%
CC1=C(C(=O)c2ccccc2)C(c2ccc(O)cc2)NC(=S)N1 (configuration not stated),,inactive: -5.17%
CC(C)OC(=O)c1cccnc1SCc1cc(=O)n2ccccc2n1,"inconclusive: 14.6 µM [activator, partial curve, poor fit]",
COC(=O)CSC1=C(C#N)C(=O)NC2(CCCCC2)S1,"inconclusive: 23.1 µM [activator, partial curve, poor fit]",
COc1ccc(NC2CCCN(C(=O)c3ccc4[nH]c(C)c(C)c4c3)C2)cc1 (configuration not stated),"inconclusive: 16.4 µM [inhibitor, partial curve]",
CC1(C)C=Cc2c(ccc3c2OC[C@H](c2ccc(O)cc2O)C3)O1,"inconclusive: 11.6 µM [activator, partial curve, poor fit]",
O=C(COC(=O)c1ccc(-c2nnc(-c3ccccc3)o2)cc1)c1ccccc1,"inconclusive: 6.51 µM [activator, partial curve]",
COc1ccc(S(=O)(=O)N2CCCCCC2)cc1C(=O)N(C)CC(=O)Nc1ccccc1Br,,inactive: -18%
Cc1ccc(C(=O)Nc2sc3c(c2C#N)CCCCC3)cc1C,"inconclusive: 2.91 µM [activator, full curve]",
CCC(C)n1nccc1NC(=O)C(C)OC(=O)c1cc2ccccc2[nH]1 (configuration not stated),"inconclusive: 29.1 µM [inhibitor, single point]",
Cc1ccccc1OC(C)C(=O)N1CCN(c2ccccn2)CC1 (configuration not stated),,inactive: 0.258%
Cc1ccc(CNC(=O)c2cc3c(C)nc4ccccc4c3o2)cc1,active: 14.6 µM,
Clc1cc(Cl)cc(Nc2ncnc(-n3cccc3)n2)c1,,inactive: -18.1%
Cc1cc(C)c(S(=O)(=O)N2CCN=C2c2ccccc2)cc1C,,inactive: -5.93%
CC(C)SCCCCOc1ccc2ccccc2c1,"inconclusive: 5.17 µM [activator, partial curve]",
NS(=O)(=O)c1ccc2nc(NC(=O)C3CCCO3)sc2c1 (configuration not stated),"inconclusive: 29.1 µM [activator, single point]",
Cc1nc(-c2cccnc2)sc1C(=O)Nc1ccc(C(F)(F)F)cc1,"inconclusive: 18.4 µM [inhibitor, single point]",
O=C(/C=C/c1ccco1)NCc1ccccn1,"inconclusive: 29.1 µM [activator, partial curve, poor fit]",
COc1ccccc1NC(=O)CCCN1C(=O)C2CC=CCC2C1=O (configuration not stated),,inactive: 2.49%
COc1cc(/C=N/NC(=O)COc2c(C)cc([N+](=O)[O-])cc2C)ccc1OC(=O)c1ccccc1,,inactive: -17%
N/C(=N\OC(=O)c1ccncc1)c1cccc([N+](=O)[O-])c1,"inconclusive: 1.78 µM [activator, full curve, poor fit]",
COC(=O)c1ccccc1NC(=O)COC(C)=O,"inconclusive: 29.1 µM [activator, partial curve, poor fit]",
